Test results as given in publication PMC10175288.
No constants are given. Whether binding was seen depends on the method and setting. In cells and extracts the contact can be indirect. Here binding means that the protein was enriched with, or labelled near, the bait; the list need not be complete. Where a sequence is shown, tags or fusion partners need not be part of it.

Sequences of proteins named here, by UniProt entry; tags and fusion partners are left off.
UniProt P35222: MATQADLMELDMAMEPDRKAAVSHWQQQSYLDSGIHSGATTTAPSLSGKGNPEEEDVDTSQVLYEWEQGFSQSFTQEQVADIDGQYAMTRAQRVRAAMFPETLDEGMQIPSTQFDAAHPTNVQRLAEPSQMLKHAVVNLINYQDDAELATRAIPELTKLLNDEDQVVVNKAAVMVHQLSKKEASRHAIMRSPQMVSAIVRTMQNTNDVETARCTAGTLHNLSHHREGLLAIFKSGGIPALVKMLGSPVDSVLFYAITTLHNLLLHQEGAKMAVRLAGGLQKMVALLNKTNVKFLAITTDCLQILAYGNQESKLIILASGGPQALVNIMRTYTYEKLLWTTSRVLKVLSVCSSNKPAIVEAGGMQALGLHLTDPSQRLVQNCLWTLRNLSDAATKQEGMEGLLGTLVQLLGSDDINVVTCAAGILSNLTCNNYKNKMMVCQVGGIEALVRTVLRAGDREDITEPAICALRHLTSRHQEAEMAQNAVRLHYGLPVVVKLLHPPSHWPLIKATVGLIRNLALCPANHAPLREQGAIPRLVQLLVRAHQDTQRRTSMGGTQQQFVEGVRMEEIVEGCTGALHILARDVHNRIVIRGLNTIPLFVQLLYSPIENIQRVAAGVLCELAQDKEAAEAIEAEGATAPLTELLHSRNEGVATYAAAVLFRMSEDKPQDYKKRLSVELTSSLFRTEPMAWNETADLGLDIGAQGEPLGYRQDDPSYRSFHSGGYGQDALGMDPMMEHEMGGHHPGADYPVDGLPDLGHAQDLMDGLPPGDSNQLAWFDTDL
UniProt P49841: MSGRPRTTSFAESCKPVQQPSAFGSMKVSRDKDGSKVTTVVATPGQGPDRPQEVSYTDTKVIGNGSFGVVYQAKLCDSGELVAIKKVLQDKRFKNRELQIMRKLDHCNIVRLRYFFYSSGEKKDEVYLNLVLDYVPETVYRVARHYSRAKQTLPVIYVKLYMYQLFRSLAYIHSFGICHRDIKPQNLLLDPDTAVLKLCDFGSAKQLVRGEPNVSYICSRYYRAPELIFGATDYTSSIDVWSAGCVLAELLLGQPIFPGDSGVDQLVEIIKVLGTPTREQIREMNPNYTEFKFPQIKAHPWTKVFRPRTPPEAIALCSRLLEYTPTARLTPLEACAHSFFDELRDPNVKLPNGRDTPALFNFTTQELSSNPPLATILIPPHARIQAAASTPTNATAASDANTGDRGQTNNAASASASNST

Molecular target: T1, fusion p140Cap-BirA-HA protein (UniProt Q9QWI6)
T1 sequence: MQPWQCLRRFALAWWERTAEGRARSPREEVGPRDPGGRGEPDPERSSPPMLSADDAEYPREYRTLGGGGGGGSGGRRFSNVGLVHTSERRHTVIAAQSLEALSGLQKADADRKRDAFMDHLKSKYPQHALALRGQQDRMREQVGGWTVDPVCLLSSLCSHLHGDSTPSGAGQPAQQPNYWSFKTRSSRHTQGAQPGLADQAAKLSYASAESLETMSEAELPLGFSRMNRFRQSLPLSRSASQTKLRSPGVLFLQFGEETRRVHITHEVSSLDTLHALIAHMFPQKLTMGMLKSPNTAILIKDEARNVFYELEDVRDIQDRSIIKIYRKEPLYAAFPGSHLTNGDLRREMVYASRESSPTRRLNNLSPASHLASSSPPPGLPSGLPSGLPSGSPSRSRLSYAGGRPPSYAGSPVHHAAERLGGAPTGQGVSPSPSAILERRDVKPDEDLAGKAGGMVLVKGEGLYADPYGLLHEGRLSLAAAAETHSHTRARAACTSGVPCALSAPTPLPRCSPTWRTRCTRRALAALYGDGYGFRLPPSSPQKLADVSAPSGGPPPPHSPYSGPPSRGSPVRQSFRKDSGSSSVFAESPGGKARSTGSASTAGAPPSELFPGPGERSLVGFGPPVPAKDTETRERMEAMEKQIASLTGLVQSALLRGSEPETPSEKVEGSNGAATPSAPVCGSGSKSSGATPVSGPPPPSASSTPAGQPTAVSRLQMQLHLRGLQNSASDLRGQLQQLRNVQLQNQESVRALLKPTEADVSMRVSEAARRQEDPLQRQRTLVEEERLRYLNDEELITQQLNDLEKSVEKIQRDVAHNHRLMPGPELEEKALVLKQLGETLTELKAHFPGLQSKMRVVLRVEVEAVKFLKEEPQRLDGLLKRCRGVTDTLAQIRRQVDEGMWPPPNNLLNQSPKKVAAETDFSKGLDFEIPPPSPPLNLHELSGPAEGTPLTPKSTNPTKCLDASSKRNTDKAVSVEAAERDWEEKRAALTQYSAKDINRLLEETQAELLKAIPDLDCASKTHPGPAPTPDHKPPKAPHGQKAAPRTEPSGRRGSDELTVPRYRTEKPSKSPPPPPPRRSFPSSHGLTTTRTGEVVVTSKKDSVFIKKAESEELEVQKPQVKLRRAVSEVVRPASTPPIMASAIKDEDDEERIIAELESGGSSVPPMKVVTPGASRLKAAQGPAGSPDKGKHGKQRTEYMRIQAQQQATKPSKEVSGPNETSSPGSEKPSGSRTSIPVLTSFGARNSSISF
Assay: proximity labelling; BioID in HEK293 cells transfected with p140Cap-BirA-HA or BirA-HA together with Axin1-GFP; 50 uM D-biotin for 3 h; biotinylated proteins isolated on streptavidin agarose and immunoblotted

binding	Substance
binds	Axin1-GFP (from UniProt O15169-1 1-862)
binds	triple phosphorylated inactive β-Catenin (endogenous in HEK293) (from UniProt P35222 1-781)
binds	total β-Catenin (endogenous in HEK293) (from UniProt P35222 1-781)
binds	GSK-3β (endogenous in HEK293) (from UniProt P49841 1-420) (enzyme)
